Library screen at single concentrations

Data taken from ChEMBL document CHEMBL3988442, “University of Dundee, Small-Polar-MMV Screening Library” (2021).

Each number is a percent effect as filed.
The record does not define 0% and 100%; most values in the screen are far below 50% and negative numbers occur (in some assays of this library far below -100).
The compounds are a random part of those screened.
Two or more numbers in one place are separate tests of the same structure; such repeats can differ widely.

Mtb cholesterol medium: 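Phenotypic screen: M. tuberculosis growth, cholesterol and DPPC medium, 4 days; the read-out is not stated. Tested at 50 µM. The record gives no direction; compounds that gave an IC50 in retests scored well above the rest, so higher reads as more growth inhibition. About 69,000 compounds were tested under these conditions; 0.54% (about 370) showed 50% or more at least once.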
Mtb glucose medium: 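Phenotypic screen: M. tuberculosis growth, glucose 7H9 medium, 3 days; the read-out is not stated. Concentration: 50 µM. Direction is inferred from retests: higher values go with more growth inhibition. Size under these conditions: about 69,000 compounds, about 760 of them at 50% or above in at least one test.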

{"compound": "Cc1oc(C(=O)O)cc1S(=O)(=O)Nc1cc(Cl)ccc1F", "Mtb cholesterol medium": -9.017, "Mtb glucose medium": 13.9}
{"compound": "c1cnn(CCN2CCOC(Cn3cncn3)C2)c1", "stereo": "stereo unspecified", "Mtb cholesterol medium": -8.075, "Mtb glucose medium": -14.62}
{"compound": "O=C(NCCN1C(=O)c2ccccc2C1=O)c1scnc1Cl", "Mtb cholesterol medium": 9.433, "Mtb glucose medium": -30.58}
{"compound": "CC(C)(C)S(=O)(=O)CCNC(=O)c1ccc2ccccc2c1", "Mtb cholesterol medium": 3.713, "Mtb glucose medium": 4.887}
{"compound": "Fc1cccc(-c2nc(CN3CCn4c(nnc4C4CC4)C3)co2)c1", "Mtb cholesterol medium": -22.98, "Mtb glucose medium": -29.53}
{"compound": "CC(NC(=O)NCCOc1ccc(Cl)cc1)c1nncn1C", "stereo": "stereo unspecified", "Mtb cholesterol medium": -2.589, "Mtb glucose medium": -25.01}
{"compound": "[H][C@]12CCN(C(=O)C3CCCO3)[C@@]1([H])CCC(=O)N2Cc1ccncc1", "stereo": "stereo partly specified", "Mtb cholesterol medium": -31.87, "Mtb glucose medium": -17.83}
{"compound": "CCNC(=O)[C@@H]1C[C@@H](NC(=O)c2cccn2C)CN1CCCSC", "Mtb cholesterol medium": 13.44, "Mtb glucose medium": 4.914}
{"compound": "Cc1ccccc1N1CCN(c2cc(N(C)C)ncn2)C(C)C1", "stereo": "stereo unspecified", "Mtb cholesterol medium": 24.51, "Mtb glucose medium": "54.23 and 37.99"}
{"compound": "CC1CN(c2ccccc2Cl)C(=O)CN1C(=O)c1c[nH]c(=O)c(Cl)c1", "stereo": "stereo unspecified", "Mtb cholesterol medium": -2.135, "Mtb glucose medium": -16.82}
{"compound": "O=C(O)C(F)(F)F.O=C(O)C(F)(F)F.[H][C@@]12CN(Cc3ccoc3)CCO[C@]1([H])CN(Cc1cnn(C)c1)C2", "Mtb cholesterol medium": 22.02, "Mtb glucose medium": 17.47}
{"compound": "Cc1cnc(C(=O)N2CCNCC2C(=O)NCc2ccncc2)cn1", "stereo": "stereo unspecified", "Mtb cholesterol medium": "-7.75 and -3.428", "Mtb glucose medium": "-3.653 and -24.2"}
{"compound": "CSCCC(=O)N1C[C@@H](C)[C@](O)(C(C)C)C1", "Mtb cholesterol medium": "-6.85 and -2.149", "Mtb glucose medium": 0.9293}
{"compound": "O=C(C(CNCc1ccccn1)c1ccccc1)N1CCOCC1", "stereo": "stereo unspecified", "Mtb cholesterol medium": -22.83, "Mtb glucose medium": 3.553}
{"compound": "CCN1CCN(c2ccc(CNC(=O)c3sccc3C)cn2)CC1", "Mtb cholesterol medium": -13.04, "Mtb glucose medium": -11.68}
{"compound": "[H][C@@]12CS(=O)(=O)C[C@]1([H])N(Cc1cc(C)c(O)c(C)c1)CCN2CC1CC1", "Mtb cholesterol medium": "10.22 and 4.343", "Mtb glucose medium": -9.244}
{"compound": "CCN(CC1CCOC1)C(=O)c1cccnc1N1CCOCC1", "stereo": "stereo unspecified", "Mtb cholesterol medium": 7.522, "Mtb glucose medium": -8.86}
{"compound": "COc1ccc2c(c1)C(=O)N(C)C1(CCN(CC3CC3)CC1)N2", "Mtb cholesterol medium": -11.05, "Mtb glucose medium": "-28.27 and 0.07309"}
{"compound": "Cc1n[nH]c(=O)c2c(NC(=O)CN3CCCC(C(F)(F)F)C3)oc(C)c12", "stereo": "stereo unspecified", "Mtb cholesterol medium": -12.17, "Mtb glucose medium": -34.94}
{"compound": "CC(C)NC(=O)NCC(Cc1ccc(F)cc1)C(N)=O", "stereo": "stereo unspecified", "Mtb cholesterol medium": -20.78, "Mtb glucose medium": -21.16}
{"compound": "Cn1cc(S(=O)(=O)NC(=O)C2(c3ccccc3)CCC2)cn1", "Mtb cholesterol medium": -4.329, "Mtb glucose medium": 1.801}
{"compound": "CN1CCC(c2n[nH]c3ncccc23)C1.O=CO", "stereo": "stereo unspecified", "Mtb cholesterol medium": 0.1744, "Mtb glucose medium": -42.82}
{"compound": "O=C(O)C(F)(F)F.O=C(O)C(F)(F)F.O=C1CC2(CCN(CC3CC3)C2)CN1c1cccnc1", "stereo": "stereo unspecified", "Mtb cholesterol medium": -9.374, "Mtb glucose medium": -1.862}
{"compound": "CC(C(=O)NCc1ccnc(N2CCN(C)CC2)c1)S(C)(=O)=O", "stereo": "stereo unspecified", "Mtb cholesterol medium": -7.426, "Mtb glucose medium": -5.386}
{"compound": "O=C(O)C(F)(F)F.O=C(O)C(F)(F)F.[H][C@@]12OCCC[C@]1([H])N(C(=O)c1cccc(C)n1)C[C@H]2OCc1ccncc1", "Mtb cholesterol medium": -8.934, "Mtb glucose medium": 4.787}
{"compound": "O=C(CN1CCCC1Cn1cccn1)NCCC1=CCCCC1", "stereo": "stereo unspecified", "Mtb cholesterol medium": -20.56, "Mtb glucose medium": -16.17}
{"compound": "CN1C(=O)COc2ccc(C(=O)Cn3cnc4ccsc4c3=O)cc21", "Mtb cholesterol medium": -8.101, "Mtb glucose medium": -15.87}
{"compound": "Cc1noc(CCCC(=O)Nc2ncccc2Br)n1", "Mtb cholesterol medium": -4.904, "Mtb glucose medium": -5.434}
{"compound": "CCOCC(=O)Nc1cccnc1-n1ccnc1C", "Mtb cholesterol medium": -3.337, "Mtb glucose medium": "-26.8 and 2.519"}
{"compound": "O=C(c1ccc(O)nc1)N1Cc2ccccc2OC2(CCOCC2)C1", "Mtb cholesterol medium": 3.408, "Mtb glucose medium": -3.185}
{"compound": "CSc1cccc(CN(C)C(=O)Nc2nc(C)n(C)n2)c1", "Mtb cholesterol medium": "-24.7 and -3.17", "Mtb glucose medium": -25.55}
{"compound": "CC(C)c1noc(C(C)S(=O)(=O)CC(=O)N2CCCC2)n1", "stereo": "stereo unspecified", "Mtb cholesterol medium": -20.73, "Mtb glucose medium": 5.065}
{"compound": "O=C(C1CCC1)N1CCC(C(=O)N2CCC(c3ccc(F)cc3)C2)CC1", "stereo": "stereo unspecified", "Mtb cholesterol medium": -29.62, "Mtb glucose medium": -38.71}
{"compound": "Cc1nn(C)c(C)c1CCC(=O)N1CC(c2cccnc2)C1", "Mtb cholesterol medium": -27.43, "Mtb glucose medium": -22.37}
{"compound": "CCOc1ccccc1OC1CCN(C(=O)c2c[nH]nn2)CC1", "Mtb cholesterol medium": 1.22, "Mtb glucose medium": "-9.923 and 3.804"}
{"compound": "CCCNC(=O)CN1CCC(NC(=O)c2cc(CC)ccc2O)CC1", "Mtb cholesterol medium": 5.573, "Mtb glucose medium": 19.3}
{"compound": "COC(=O)CCC(=O)NC1CCCc2cc(OC(F)F)ccc21", "stereo": "stereo unspecified", "Mtb cholesterol medium": -14.95, "Mtb glucose medium": 34.66}

The first 4 entries again:

Compound,Mtb cholesterol medium,Mtb glucose medium
Cc1oc(C(=O)O)cc1S(=O)(=O)Nc1cc(Cl)ccc1F,-9.017,13.9
c1cnn(CCN2CCOC(Cn3cncn3)C2)c1 (stereo unspecified),-8.075,-14.62
O=C(NCCN1C(=O)c2ccccc2C1=O)c1scnc1Cl,9.433,-30.58
CC(C)(C)S(=O)(=O)CCNC(=O)c1ccc2ccccc2c1,3.713,4.887